The values that follow come from article PMC7862700.

Amino acid sequences for entries named in this document (tags omitted). A change or cut given only in a name is not applied to a line headed by its entry.
UniProt Q9Y603: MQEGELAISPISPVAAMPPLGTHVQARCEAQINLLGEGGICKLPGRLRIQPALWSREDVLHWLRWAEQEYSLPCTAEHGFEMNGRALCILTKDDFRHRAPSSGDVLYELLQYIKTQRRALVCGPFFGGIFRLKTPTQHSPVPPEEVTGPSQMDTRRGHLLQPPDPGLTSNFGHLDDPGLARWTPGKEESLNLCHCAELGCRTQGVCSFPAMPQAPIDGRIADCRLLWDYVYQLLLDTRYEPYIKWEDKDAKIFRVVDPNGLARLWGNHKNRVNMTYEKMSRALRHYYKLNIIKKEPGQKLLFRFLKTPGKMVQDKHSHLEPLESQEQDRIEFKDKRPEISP
UniProt P41212: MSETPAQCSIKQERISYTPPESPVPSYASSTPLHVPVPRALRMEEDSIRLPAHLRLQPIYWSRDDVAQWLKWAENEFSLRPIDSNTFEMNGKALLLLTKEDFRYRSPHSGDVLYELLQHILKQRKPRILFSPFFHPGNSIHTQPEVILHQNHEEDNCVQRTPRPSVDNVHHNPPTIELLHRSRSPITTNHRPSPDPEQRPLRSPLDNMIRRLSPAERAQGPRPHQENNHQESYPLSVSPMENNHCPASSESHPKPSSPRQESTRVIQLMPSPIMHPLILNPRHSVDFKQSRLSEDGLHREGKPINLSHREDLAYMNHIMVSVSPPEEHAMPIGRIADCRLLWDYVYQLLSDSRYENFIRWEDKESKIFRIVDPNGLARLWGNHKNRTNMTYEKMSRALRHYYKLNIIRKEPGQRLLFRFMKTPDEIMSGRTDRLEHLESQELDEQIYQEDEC

Test in all cases: DAPPL (digital affinity profiling via proximity ligation, sequencing)
Conditions in all cases: 10 mM Tris-HCl pH 7.5, 50 mM NaCl, 1 mM DTT, 4% glycerol, room temperature, 30 min; GST-TFs on glutathione beads, 16-mer random dsDNA library, 0.1% …; high values mean tight binding; double strand, one strand shown; scale: fold enrichment (6-mer frequency, TF over GST control)

The target of one assay is T1, ELF3 (UniProt P78545).
T1 sequence: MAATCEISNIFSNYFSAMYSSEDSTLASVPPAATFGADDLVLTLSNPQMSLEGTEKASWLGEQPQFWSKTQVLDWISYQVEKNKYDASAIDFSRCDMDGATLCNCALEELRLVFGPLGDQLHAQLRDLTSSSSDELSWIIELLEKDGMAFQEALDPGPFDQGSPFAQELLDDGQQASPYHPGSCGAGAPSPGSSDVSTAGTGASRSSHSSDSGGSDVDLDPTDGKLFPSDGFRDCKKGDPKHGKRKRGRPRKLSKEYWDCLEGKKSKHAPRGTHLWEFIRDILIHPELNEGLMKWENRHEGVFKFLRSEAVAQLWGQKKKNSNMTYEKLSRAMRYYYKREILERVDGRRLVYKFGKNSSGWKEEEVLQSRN

The target in a further assay is ETV7 (UniProt Q9Y603).
A further assay concerns the target ETV6 (UniProt P41212).

This is a selection; strong and weak results do not stand in their true shares. At the low end of the ranking the order means little.

Regarding TCTGCC, the binding signal in the assay with ELF3 came to 1.28. On the same count and under the same terms, under CGAAAA stands 1.01; under AATCAA, 1.24; under TACATC, 1.48. Still for that read-out and setting: under TATCAG stands 1.09.

The sequence TACAAG yielded a binding signal in the assay with ELF3 of 1.23. The same measure, in the same setting: next, CCGGTA: 1.6.

The sequence TACACG registered a binding signal with ELF3 of 1.15. The same measure, in the same setting: under CATTCC stands 1.2; under AACGAC, 1.02. Same read-out and setting: next, CTCTGT: 1.4. Take CGATAT: in the assay with ELF3, the binding signal stood at 1.14. On the same count and under the same terms, next, TCTAGC: 1.32; CAACCA: 0.966. On the same count and under the same terms, under TGAAAC stands 1.42; under TTGTAC, 1.39; under CGCCGA, 1.03. On the same count and under the same terms, next, TTAGAA: 0.922. As to ATAACT, in the assay with ELF3, the binding signal amounted to 1.24. On the same count and under the same terms, under AATAAC stands 1.25; under GAAGCA, 1.27. Still for that read-out and setting: under CACTTA stands 1.24; under CTAAGA, 1.24; under GTAAAC, 1.38.

Turning to AAGTTT, the binding signal in the assay with ELF3 turned out to be 1.35. Same read-out and setting: next, CTCTGA: 1.09. On the same count and under the same terms, under CTGGCC stands 1; under AATGGG, 1.13. For TCCAAT, the binding signal with ELF3 was 1.11.

ATGCTT had a binding signal in the assay with ELF3 of 1.35. Still for that read-out and setting: next, ATGTCT: 1.08; CAGCTT: 1.19; AATTAG: 1.13. Still for that read-out and setting: under TAAAGA stands 1.2. On the same count and under the same terms, under TATGGA stands 1.15; under TCGATT, 1.1. GATTCC yielded a binding signal with ELF3 of 1.09. The same measure, in the same setting: next, CCTGGT: 1.13; TAAAAC: 1.14; CGCTCC: 1.3. ACCTAA had a binding signal with ELF3 of 1.2. ACCAAT returned a binding signal in the assay with ELF3 of 1.28.

For TCTCGC, the binding signal with ELF3 came to 1.88.

In the case of GCTATT, the binding signal in the assay with ELF3 was found to be 1.45. Same read-out and setting: under GTATTC stands 1.31; under GAATAA, 1.12.

For the sequence CTGACT, the binding signal with ELF3 turned out to be 1.52.

Take TAACTC: the binding signal in the assay with ELF3 stood at 0.964.

In turn, TGAATT yielded a binding signal with ELF3 of 1.12. On the same count and under the same terms, under TTTACT stands 1.65. Still for that read-out and setting: under TTCAAG stands 1.23. The same measure, in the same setting: next, CTTAGG: 1.49; GAATTC: 1.13; TTCCTG: 2.23. The sequence ACGTTC had a binding signal with ELF3 of 1.25. On the same count and under the same terms, next, TAATGA: 1.12; TGCGCG: 0.987. Sequence TAGGCT showed a binding signal with ELF3 of 1.1. Same read-out and setting: under TTTGGC stands 0.972; under AAGTAC, 1.68. In turn, CTACGA came in with a binding signal with ELF3 of 1.5. On the same count and under the same terms, under TGACTT stands 1.55; under AGAAAT, 1.2; under CTGCCA, 1.22. The same measure, in the same setting: under TCCATC stands 1.11. Same read-out and setting: next, GCTTAT: 1.29; GATTAC: 1.04; TTAACT: 1.21.

In the assay with ELF3, ATACAG displayed a binding signal of 1.12. The same measure, in the same setting: next, AGATTC: 1.11; TTCTCG: 1.57; CCGCCC: 1.28.

CTTTCT had a binding signal in the assay with ELF3 of 1.73. On the same count and under the same terms, under CCTACG stands 1.5; under ATGGCT, 1.33. For TGCTGC, the binding signal with ELF3 worked out at 1.11.

Regarding AATGAT, the binding signal with ELF3 was 1.17.

Regarding CTCAGA, the binding signal in the assay with ELF3 came out at 0.991; with ETV7 it was 0.966. In the same order, the values of ACATGG are 1.17 and 1.08.

For the sequence TGTGGA, the figures for the binding signal with ELF3 and with ETV7 were 1 and 0.879, respectively. As to GATGAC, in the assay with ELF3, the binding signal amounted to 1.48.

Consider ATTCAG, for which the binding signal worked out at 0.999 with ELF3 and 1.02 with ETV7. In the same order, the values of TCGCAA are 0.914 and 1.01. Turning to TACGCC, the binding signal with ELF3 amounted to 1.14; with ETV7, 1.19. With GGTTTA, the binding signal is 1.13 with ELF3 and 1.15 in the assay with ETV7. Consider CTAATG, for which the results for the binding signal with ELF3 and in the assay with ETV7 were 1.27 and 1.3, respectively. The matching figures for ACTTAT: 1.27 and 1.21. In the same order, the values of TGCCAA are 1.17 and 1.01. The matching figures for TTCAAA: 1.43 and 1.19.

Take ATCAGC: the values for the binding signal with ELF3 and with ETV7 were 1.13 and 0.958, respectively. As for CCCTCC, the binding signal turned out to be 1.27 with ELF3 and 1.37 with ETV7. The matching figures for GAACAC: 1.13 and 1.15. For the sequence GGAAGC, the binding signal in the assay with ELF3 came to 1.48; in the assay with ETV7, 1.62. The matching figures for CTGTAA: 0.939 and 0.896. In the same order, the values of CAGAAT are 0.821 and 0.964.

TTGCGC: the binding signal amounted to 0.94 in the assay with ELF3 and 1.12 in the assay with ETV7. Turning to GAAAGA, the figures for the binding signal with ELF3 and with ETV7 were 0.935 and 1.1, respectively.

With GTCTTC, the binding signal with ELF3 was found to be 1.46; in the assay with ETV7, 1.14. Take GGTATA: the binding signal in the assay with ELF3 stood at 0.909.

With CATCGA, the binding signal in the assay with ELF3 stood at 1.04; in the assay with ETV7 it was 1.13. The matching figures for GCCCCT: 1.24 and 1.22. As to ATGAAA, the binding signal with ELF3 turned out to be 1.19; with ETV7, 1.07. In the same order, the values of ATACCA are 0.99 and 1.02. In the same order, the values of GATCCT are 1.03 and 1.2.

TGTAGC: the binding signal with ELF3 amounted to 0.922; with ETV7 it was 1.12. For the sequence AAAAGG, the binding signal was 1.2 with ELF3 and 1.16 with ETV7. The sequence CACCAT had a binding signal with ELF3 of 1.1.

CGAGCT: the values for the binding signal with ELF3 and with ETV7 were 0.982 and 1.02, respectively.

For GGCTCT, the binding signal with ELF3 and with ETV7 was 1.44 throughout. GTTACG: the values for the binding signal in the assay with ELF3 and with ETV7 were 0.986 and 1.02, respectively. In the same order, the values of GTTCTT are 1.31 and 1.18. ATATGT showed a binding signal with ELF3 of 1.14.

Take ATGTAA: the results for the binding signal with ELF3 and with ETV7 were 1.39 and 1.26, respectively. In the case of CGACGA, the binding signal is 0.977 in the assay with ELF3 and 1.11 with ETV7.

For the sequence CGATCC, the binding signal with ELF3 was 1.08; with ETV7 it was 1.1. Regarding GCCTTT, in the assay with ELF3, the binding signal came to 1.38. ATAAAC: the binding signal in the assay with ELF3 was determined as 1.13; with ETV7, 1.05; with ETV6 it was 1.19. The matching figures for CATGAA: 1.15, 0.96 and 0.943. As to TTTACA, the results for the binding signal in the assay with ELF3 and with ETV7 were 1.4 and 1.22, respectively. The matching figures for CGATAA: 0.947 and 1.08.
